The text below walks through data of US20250107543A1, “TREATMENT OF AGRICULTURAL, FOOD AND RELATED PRODUCTS FOR ELIMINATING CONTAMINANTS AND ENCHANCING SHELF-LIFE” (priority 2022, published 2025).

Data set [1] can be described thus: C17H12O6 content of treated corn. Here is the method: The data presented in Table-4 illustrates the efficiency of the system of the present disclosure in detoxifying pre-conditioned contaminated corn.
Three sets of C17H12O6 contaminated 70 kg's of corn were separately decontaminated in the system of the present disclosure. In this case, corn samples were pre-conditioned with a pre-conditioning liquid and exposed to trioxygen gas for up to 5 minutes. The products were put under pressure of trioxygen gas for a span of 9 minutes to 26 minutes. Based on the commodity characteristics, the exposure of trioxygen gas was repeated 20 times. Trioxygen gas having capacity 500 g/h was generated by the trioxygen generator of the system (on site) with a constant oxygen flow rate and delivered to the decontamination chamber through silicon tube. All 3 sets of products were air dried and then analyzed for the presence of the contaminant and the results obtained are summarized in Table-4

Data set [2] can be described thus: C17H12O6 content of treated whole red chilli. As to conditions: whole red chilli 12 kg's, before treatment 22.54 ppb. The procedure: This experiment illustrates the treatment of aerobic micro-organisms, yeast, mould, coliform, E. coli, Salmonella and fat soluble metabolites contaminated whole red chilli.
The data presented in Table-2 illustrate the efficacy of the present disclosure in detoxifying contaminated whole red chillies. […].
The red chillies were exposed with Trioxygen for 2 minutes. The products were put under pressure of trioxygen gas for a span of 9 minutes to 26 minutes. Based on the commodity characteristics, the exposure of trioxygen gas was repeated 10 times. Trioxygen gas having a capacity 500 g/h was generated by the trioxygen generator (on site) of the system with a constant oxygen flow rate and delivered to the decontamination chamber through silicon tube. The whole red chillies were then treated to heated air.

Data set [3] is described as follows: C17H12O6 content of treated groundnuts. As to conditions: groundnut. Here is the method:
The data presented in Table-3 illustrates the efficiency of the system of the present disclosure in detoxifying contaminated groundnuts.
Three sets of C17H12O6 contaminated 3 kg's, 60 kg's and 60 kg's of groundnuts were separately pre-conditioned and decontaminated in the system. In this case, groundnuts were pre-conditioned and exposed with trioxygen gas for up to 5 minutes. The products were put under pressure of trioxygen gas for a span of 9 minutes to 26 minutes. Based on the commodity characteristics, the exposure of trioxygen gas was repeated 15 times. Trioxygen gas having capacity 500 g/h was generated by the trioxygen generator of the system (on site) with a constant oxygen flow rate and delivered to the decontamination chamber through silicon tube. All 3 sets of products were heated and then analyzed for the presence of the contaminant and the results obtained are summarized in Table-3.

On to `O=[O+][O-]` [Trioxygen], for which the “C17H12O6, Results After Treatment” value in data set [1] (Sr. No. 1, 70 kg's, before treatment 54.20 ppb) is “Not detected”; in data set [1] (Sr. No. 2, 70 kg's, before treatment 161.48 ppb), 23.56 ppb; in data set [1] (Sr. No. 3, 70 kg's, before treatment 11.03 ppb), “Not detected”; in data set [2] (Trial 2) it was 6.10 ppb; in data set [2] (Trial 3) it was 5.31 ppb; in data set [3] (Sr. No. 1, 3 kg's, before treatment 101.84 ppb), “Not detected”. Moreover, the “C17H12O6, Results After Treatment” value in data set [3] (Sr. No. 2, 60 kg's, before treatment 44.57 ppb) came to 2.95 ppb; in data set [3] (Sr. No. 3, 60 kg's, before treatment 377.69 ppb) it was 137.53 ppb.
